PubChem BioAssay AID1671190 (National Center for Advancing Translational Sciences (NCATS), 2021)
“And” between values parts separate entries of the source, which are not always exact repeats. Equal values may be shown once. Screen size: about 580,000 compounds; about 6,100 (1.1%) were called active. The inconclusive results got no clear call from the source; some entries with a clear call stand among them for comparison. The call rests on the fitted dose curve; in most records, active means well fitted inhibition curve with a large enough effect; inconclusive means small, poorly fitted or top-dose-only effect, or another doubt; inactive means no such curve, though single readings can be large or run the other way. Potencies beside an inconclusive call are fits to weak or partial responses and may not hold up.

Protein sequences, listed by entry. Tags and fused reporters are not part of them.
UniProt P18054, whole entry, looked up: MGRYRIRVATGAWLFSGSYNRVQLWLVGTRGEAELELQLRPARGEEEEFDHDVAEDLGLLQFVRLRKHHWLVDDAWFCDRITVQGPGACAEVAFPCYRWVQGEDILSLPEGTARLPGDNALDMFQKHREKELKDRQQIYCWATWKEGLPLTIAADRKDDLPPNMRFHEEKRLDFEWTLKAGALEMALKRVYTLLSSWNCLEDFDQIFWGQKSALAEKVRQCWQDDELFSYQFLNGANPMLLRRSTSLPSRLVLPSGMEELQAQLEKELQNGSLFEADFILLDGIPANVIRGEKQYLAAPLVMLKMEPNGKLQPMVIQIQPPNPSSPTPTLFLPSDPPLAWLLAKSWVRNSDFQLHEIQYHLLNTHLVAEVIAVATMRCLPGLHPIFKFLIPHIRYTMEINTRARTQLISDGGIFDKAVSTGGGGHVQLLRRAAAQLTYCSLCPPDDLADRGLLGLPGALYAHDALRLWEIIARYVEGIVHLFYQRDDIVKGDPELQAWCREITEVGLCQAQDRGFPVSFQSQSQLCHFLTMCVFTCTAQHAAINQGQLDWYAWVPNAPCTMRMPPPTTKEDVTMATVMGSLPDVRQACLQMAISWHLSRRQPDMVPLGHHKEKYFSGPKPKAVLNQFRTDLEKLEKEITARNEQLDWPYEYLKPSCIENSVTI

target: Polyunsaturated fatty acid lipoxygenase ALOX12 (Homo sapiens) (UniProt P18054); assay: Primary qHTS assay for inhibitors of human arachidonate 12S-lipoxygenase (ALOX12): Round 2; details: purified 12hLO, xylenol orange hydroperoxide absorbance; activity change, negative = inhibition: at 108 µM (top of the series) unless noted
In short: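 Purified human 12hLO (150 nM final) in 25 mM Hepes, 0.01% Triton X-100, pH 7.0 was preincubated 15 min at room temperature with compound. Then 40 uM arachidonic acid was added, 30 min. Hydroperoxide was read by Fe-XO absorbance ratio 573/405 nm.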
On the % scale 0 is the no-effect control and ±100 the full control effect; potency means the concentration at half of the fitted maximal effect.

Row | Compound | Potency | activity change, negative = inhibition
1 | COc1ccc(CNC(=O)c2cc(C)nc3ccccc23)cc1OC | inconclusive: 0.224 µM [inhibitor, full curve, poor fit] | –
2 | COc1ccc2c(c1)CC/C=C(/C)CC(CO)O2 (stereo unspecified) | inconclusive: 126 µM [inhibitor, single point] | –
3 | CCCCN1CC(=O)N2[C@H]3c4ccccc4OC[C@@H]3[C@H](c3ccccc3)[C@]2(C)C1=O | inconclusive: 100 µM [inhibitor, single point] | –
4 | O=C(Nc1c(NCc2ccccc2)c2ccccc2oc1=O)c1cccc(Cl)c1 | inconclusive: 89.1 µM [inhibitor, single point] | –
5 | CCOc1ccc(-c2nc(N)ncc2Oc2ccc(OC)cc2)c(O)c1 | active: 44.7 µM and active: 15.8 µM | –
6 | CCCCn1nc(C(=O)N[C@@H](Cc2ccccc2)C(=O)O)c2ccccc2c1=O | – | inactive: -26.8%
7 | COc1ccc(OCC(=O)Nc2ccc(-c3nc4ccc(C)cc4o3)cc2)cc1 | inconclusive: 79.4 µM [inhibitor, single point] | –
8 | O=C1N[C@@H]2CCN(S(=O)(=O)c3ccc(Cl)cc3)[C@@H]2C(=O)N1c1ccccc1 | – | inactive: 0.734% [at 176 µM]
9 | O=C(NCc1ccco1)c1cc2cc3ccc(Cl)cc3nc2o1 | inconclusive: 20 µM [inhibitor, full curve, poor fit] | –
10 | COc1ccc2[nH]c(=O)c(CN(C(=O)c3ccccn3)C3CCCCC3)cc2c1 | inconclusive: 44.7 µM [inhibitor, partial curve, poor fit] | –
11 | Cc1cn2nnc(C(=O)NCC3CCCCC3)c2c(=O)[nH]1 | inconclusive: 44.7 µM [inhibitor, partial curve] | –
12 | CNC(=O)NC(=O)C(C)OC(=O)c1ccc(COc2ccc3c(C)cc(=O)oc3c2)cc1 (stereo unspecified) | inconclusive: 2.82 µM [inhibitor, full curve, poor fit] | –
13 | COc1ccc(N2CCN(C(=O)c3c(-c4ccccc4)noc3C)CC2)cc1 | – | inactive: -16.1%
14 | Cc1ccc(S(=O)(=O)N2CCC(=O)N([C@H](COCc3cccc(C(F)(F)F)c3)C(C)C)CC2)cc1 | inconclusive: 56.2 µM [inhibitor, partial curve, poor fit] | –
15 | CO/N=C(/CS(=O)(=O)c1ccc(Br)cc1)c1ccc(OC)cc1 | inconclusive: 50.1 µM [inhibitor, partial curve, poor fit] | –
16 | CC(C)CCNC(=S)Nc1ccc(SC(F)F)cc1 | inconclusive: 44.7 µM [inhibitor, partial curve, poor fit] | –
17 | Cc1ccc(O)c(N=Cc2cc(Cc3ccccc3)cc([N+](=O)[O-])c2O)c1 | inconclusive: 20 µM [inhibitor, full curve, poor fit] | –
18 | c1ccc(CNc2c(-c3cccc(SC4CCCCC4)c3)nc3ccccn23)cc1 | active: 14.1 µM | –
19 | CCN(CC)C(=O)CC(c1ccc(OC)cc1)c1c(OC)cc(OC)c2ccc(=O)oc12 (stereo unspecified) | inconclusive: 112 µM [inhibitor, single point] | –
20 | CCCCCOC(=O)c1c(C)oc2cc(C)c(NS(=O)(=O)c3cccs3)cc12 | inconclusive: 11.2 µM [inhibitor, full curve, poor fit] | –
21 | Cc1c(C(=O)c2ccc(C(C)(C)C)cc2)sc(Nc2ccccc2)c1C#N | inconclusive: 35.5 µM [inhibitor, partial curve, poor fit] | –

Row | Compound | Potency | activity change, negative = inhibition
22 | CC(Sc1nc(-c2ccccc2)cc(C(F)(F)F)n1)C(=O)O (stereo unspecified) | – | inactive: 0.0445%
23 | COc1ccccc1NC(=O)Nc1nc(CC(=O)Nc2cc(F)ccc2F)cs1 | inconclusive: 70.8 µM [inhibitor, partial curve, poor fit] | –
24 | CC(=O)Nc1ccc(OCC(O)CNC(C)C)cc1 (stereo unspecified) | inconclusive: 16.1 µM [inhibitor, partial curve, poor fit] | –
25 | Cc1ccc(NC(=S)NNC(=O)c2ccc(N3CCOCC3)c([N+](=O)[O-])c2)cc1Cl | inconclusive: 44.7 µM [inhibitor, partial curve, poor fit] | –
26 | COc1ccc(Cn2cc(CN3CC(N4CCN(C)CC4)CS3(=O)=O)nn2)cc1 (stereo unspecified) | inconclusive: 17.8 µM [inhibitor, full curve] | –
27 | CCOc1ccc(CNC(=O)CN2N=C(c3ccccc3)CCC2=O)cc1OC | – | inactive: -0.0906%
28 | COc1ccc(-n2cc(-c3ccccc3)c3c(=S)nc[nH]c32)cc1 | inconclusive: 20 µM [inhibitor, partial curve, poor fit] | –
29 | NC(=O)CNS(=O)(=O)/C=C/c1ccc(Cl)cc1 | inconclusive: 112 µM [inhibitor, partial curve, poor fit] | –
30 | O=C(NCCN1CCC(n2c(=O)[nH]c3ccccc32)CC1)C(c1ccccc1)c1ccccc1 | inconclusive: 44.7 µM [inhibitor, partial curve, poor fit] | –
31 | Cc1ccc(S(=O)(=O)Nc2ccccc2CNc2ncc(Br)cc2Br)cc1 | – | inactive: -0.208%
32 | O=C(O)c1ccc(Nc2nc(-c3ccc([N+](=O)[O-])cc3)nc3ccccc23)cc1 | inconclusive: 44.7 µM [inhibitor, partial curve, poor fit] | –
33 | C[C@@H](C(=O)Nc1nc(-c2ccccn2)cs1)N1C(=O)C2CCCCC2C1=O (stereo partly specified) | inconclusive: 31.6 µM [inhibitor, partial curve, poor fit] | –
34 | O=C(Nc1cccc(NC(=O)c2cccs2)c1)c1ccco1 | inconclusive: 22.4 µM [inhibitor, partial curve] | –
35 | O=C(NC(NC(=S)Nc1ccccc1Cl)C(Cl)(Cl)Cl)c1cccc(Cl)c1 (stereo unspecified) | inconclusive: 28.2 µM [inhibitor, partial curve] | –
36 | CN1CCN(C(c2ccc(C(F)(F)F)cc2)c2ccc3cccnc3c2O)CC1 (stereo unspecified) | active: 17.8 µM | –
37 | Cc1cccc(N2CCN(CC(=O)Nc3nccs3)CC2)c1C | inconclusive: 35.5 µM [inhibitor, single point] | –
38 | CCOC(=O)C1CCN(C(=O)c2cc3cc(Cl)ccc3[nH]2)CC1 | inconclusive: 44.7 µM [inhibitor, partial curve, poor fit] | –
39 | Cn1c(C(=O)NCCc2ccccc2)cc2sc(Cl)cc21 | inconclusive: 63.1 µM [inhibitor, partial curve, poor fit] | –
40 | Cc1ccc(CNC(=O)CSc2nc3ccsc3c(=O)n2-c2ccc(Br)cc2)cc1 | inconclusive: 44.7 µM [inhibitor, partial curve] | –
41 | Cc1ccccc1-n1c(=O)c2sccc2n(CC(=O)NC(C)C)c1=O | – | inactive: 34.4%
42 | COc1ccc(C2CCCN2Cc2coc(-c3ccc(F)cc3)n2)cc1 (stereo unspecified) | inconclusive: 28.2 µM [inhibitor, partial curve, poor fit] | –

Entries of single compounds from above. Values in the order: Potency	activity change, negative = inhibition
O=C(O)c1ccc(Nc2nc(-c3ccc([N+](=O)[O-])cc3)nc3ccccc23)cc1 in the list: inconclusive: 44.7 µM [inhibitor, partial curve, poor fit]	–
Cc1ccc(S(=O)(=O)Nc2ccccc2CNc2ncc(Br)cc2Br)cc1 in the list: –	inactive: -0.208%
Cc1cccc(N2CCN(CC(=O)Nc3nccs3)CC2)c1C in the list: inconclusive: 35.5 µM [inhibitor, single point]	–
CN1CCN(C(c2ccc(C(F)(F)F)cc2)c2ccc3cccnc3c2O)CC1 (stereo unspecified) in the list: active: 17.8 µM	–

(more compounds)

Row | Compound | Potency | activity change, negative = inhibition
43 | CCc1ccc(NC(=O)c2sccc2-n2cccc2)cc1 | inconclusive: 50.1 µM [inhibitor, partial curve, poor fit] | –
44 | CC1CCC(=NNC(=S)NC2CCCCC2)CC1 (stereo unspecified) | inconclusive: 89.1 µM [inhibitor, single point] | –
45 | Cc1nc2scc(CC(=O)NCC(C)C)n2c(=O)c1-c1cc(C)n(-c2cccc(Cl)c2)n1 | inconclusive: 17.8 µM [inhibitor, full curve] | –
46 | CCOc1ccc(S(=O)(=O)Nc2cc(Cl)ccc2O)cc1 | inconclusive: 25.1 µM [inhibitor, partial curve, poor fit] | –
47 | O=C(/C=C/c1ccncc1)c1ccc2c(c1)OCCO2 | inconclusive: 5.01 µM [inhibitor, full curve, poor fit] | –
48 | O=C(Nc1nc2ccccc2[nH]1)C1CCC1 | – | inactive: 0.38%
49 | COc1cccc(-c2oc3ccc(C)cc3c(=O)c2O)c1 | inconclusive: 50.1 µM [inhibitor, partial curve, poor fit] | –
50 | CC1(C)CC(NC(=O)c2ccc(Cl)c(S(=O)(=O)N(Cc3ccccc3)c3ccccc3)c2)CC(C)(C)N1 | inconclusive: 44.7 µM [inhibitor, partial curve, poor fit] | –
51 | CC(=O)Nc1ccc(CN2C(=O)OC3(CCN(Cc4ccc(C(C)C)cc4)CC3)C2(C)c2ccccc2)cc1 (stereo unspecified) | inconclusive: 31.6 µM [inhibitor, full curve] | –
52 | CCOc1ccc(Nc2nc(C)c(NC(=O)c3cccc(F)c3)c(Nc3ccc(OCC)cc3)n2)cc1 | inconclusive: 126 µM [inhibitor, single point] | –
53 | Cc1noc(C)c1S(=O)(=O)N(CC(=O)NCCc1ccc(Cl)cc1)c1ccc(C(C)C)cc1 | – | inactive: -9.57%
54 | C=C(C)C[C@@H]1Cc2c(Br)cccc2[C@@H](CC(=C)C)N1 | inconclusive: 50.1 µM [inhibitor, partial curve, poor fit] | –
55 | CCOc1ccc(C2C(C#N)=C(C)NC3=C2C(=O)c2ccccc23)cc1 (stereo unspecified) | inconclusive: 50.1 µM [inhibitor, partial curve] | –
56 | O=C(COC(=O)c1ccc(S(=O)(=O)N2CCCC2)cc1)Nc1cccc(F)c1 | inconclusive: 31.6 µM [inhibitor, full curve, poor fit] | –
57 | CN1C(=O)C(O)(CC(=O)/C=C/c2ccco2)c2cc(Br)ccc21 (stereo unspecified) | – | inactive: -24.2%
58 | O=C(Nc1nc(-c2ccco2)c(-c2ccco2)s1)C1CCC1 | active: 11.2 µM | –
59 | Cc1cccc(OCC(=O)Nc2ccc3c(c2)nc(CN2CCCCC2)n3C)c1 | inconclusive: 44.7 µM [inhibitor, partial curve, poor fit] and inconclusive: 112 µM [inhibitor, single point] | –
60 | CCN(C[C@H]1N[C@@](CC)(C(=O)OC)[C@H]2C(=O)N(C)C(=O)[C@@H]12)C(=O)COC | inconclusive: 89.1 µM [inhibitor, partial curve, poor fit] | –
61 | CN1CCN(S(=O)(=O)c2ccc(N(C)CCOc3ccc(Cl)cc3)nc2)CC1 | inconclusive: 112 µM [inhibitor, partial curve, poor fit] | –
